PubChem BioAssay AID1259424 – University of Nebraska Medical Center | 2018
In all, the deposit lists about 14,000 reagents; this is a part drawn at random. 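Higher correlation or smaller distance means closer resemblance to KSR1 loss; control wells, including KSR1 knockdowns, recur on many plates.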 Further read-outs or replicates are left out here. The record does not give: the time to read-out.

- Aim: 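Rank knockdowns across the genome by resemblance to the KSR1 depletion profile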 (primary screen)
- Cells: human HCT116 colon cancer cells
- Knock-down reagent: siRNA pool against human genes, 50 nM
- Detection: 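Six signature mRNAs by branched-DNA multiplex assay, scaled to two housekeeping genes and non-targeting median, log2; matched to mean KSR1 knockdown profile by Pearson correlation and euclidean distance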
- Reading the numbers: mean correlation with KSR1 profile and KSR1 correlation: higher = expression change more like KSR1 knockdown; mean distance from KSR1 profile: higher = expression change less like KSR1 knockdown

| gene | PubChem SID | mean correlation with KSR1 profile | mean distance from KSR1 profile | KSR1 correlation, replicate 1 | KSR1 correlation, replicate 2 |
| --- | --- | --- | --- | --- | --- |
| DELE1 (DAP3 binding cell death enhancer 1) | SID363999097 | 0.157 | 2.75 | 0.276 | 0.207 |
| STMN4 (stathmin 4) | SID364003447 | 0.648 | 1.23 | 0.286 | 0.147 |
| SPIRE2 (spire type actin nucleation factor 2) | SID364005197 | 0.792 | 1.48 | 0.71 | 0.792 |
| FAT2 (FAT atypical cadherin 2) | SID363992709 | 0.0848 | 2.41 | 0.249 | -0.1 |
| DMGDH (dimethylglycine dehydrogenase) | SID363998497 | 0.613 | 3.58 | 0.304 | 0.322 |
| SLC17A3 | SID363997420 | -0.421 | 2.14 | -0.181 | -0.51 |
| TPD52 (tumor protein D52) | SID363996016 | -0.447 | 1.81 | -0.471 | -0.486 |
| ZFP36L1 (ZFP36 like 1 zinc finger CCCH-type) | SID363995870 | -0.371 | 3.06 | 0.234 | -0.515 |
| HSPC047 (retired record) | SID363998611 | -0.568 | 3.16 | -0.551 | -0.478 |
| HCN4 | SID363996379 | -0.207 | 3.24 | -0.328 | -0.436 |
| NCR3 (natural cytotoxicity triggering receptor 3) | SID364004681 | -0.52 | 2.37 | -0.562 | -0.377 |
| PRMT7 (protein arginine methyltransferase 7) | SID364001336 | -0.354 | 2.01 | -0.528 | -0.526 |
| ZBTB11 (zinc finger and BTB domain containing 11) | SID363998834 | 0.208 | 1.4 | 0.000324 | -0.0237 |
| SRP19 (signal recognition particle 19) | SID363994276 | 0.553 | 0.754 | 0.279 | 0.656 |
| WDR59 (WD repeat domain 59) | SID364003372 | 0.588 | 1.26 | 0.63 | 0.468 |
| SMARCD1 (SWI/SNF related BAF chromatin remodeling complex subunit D1) | SID363994221 | -0.333 | 1.48 | -0.301 | -0.147 |
| ADGRE5 (adhesion G protein-coupled receptor E5) | SID363993003 | 0.919 | 0.627 | 0.886 | 0.888 |
| SRL (sarcalumenin) | SID364005251 | -0.426 | 2.02 | -0.564 | -0.33 |
| AKR1C1 (aldo-keto reductase family 1 member C1) | SID363992630 | -0.471 | 2.37 | -0.358 | -0.447 |
| F11R (F11 receptor) | SID364000282 | -0.401 | 3.71 | -0.458 | -0.446 |
| NF1 (neurofibromin 1) | SID363991600 | -0.0223 | 1.55 | -0.055 | 0.0674 |
| PRG2 (proteoglycan 2, pro eosinophil major basic protein) | SID363993886 | -0.431 | 1.62 | 0.0703 | -0.0481 |
| MRPL23 (mitochondrial ribosomal protein L23) | SID364002031 | 0.00264 | 1.15 | -0.46 | 0.438 |
| HOXA7 (homeobox A7) | SID363997653 | 0.353 | 2.57 | 0.288 | 0.43 |
| BMP2K (BMP2 inducible kinase) | SID364000384 | 0.234 | 2.12 | 0.266 | 0.103 |
| STEEP1 (STING1 ER exit protein 1) | SID364002329 | -0.142 | 2.19 | -0.33 | 0.331 |
| ERF (ETS2 repressor factor) | SID363997291 | 0.409 | 1.66 | 0.478 | 0.492 |
| ZBBX (zinc finger B-box domain containing) | SID364002978 | 0.0292 | 2.84 | 0.0231 | -0.0168 |
| FAM106A (family with sequence similarity 106 member A) | SID364003193 | 0.277 | 1.8 | 0.354 | 0.139 |
| AGXT (alanine--glyoxylate aminotransferase) | SID363991369 | -0.296 | 3.54 | -0.639 | -0.432 |
| TJP2 (tight junction protein 2) | SID363995770 | -0.228 | 3.27 | 0.171 | -0.417 |
| AP1S1 (adaptor related protein complex 1 subunit sigma 1) | SID363992567 | -0.154 | 1.98 | -0.0648 | -0.101 |
| UQCRB (ubiquinol-cytochrome c reductase binding protein) | SID363997116 | 0.117 | 1.51 | 0.0352 | -0.0814 |
| PTBP3 (polypyrimidine tract binding protein 3) | SID363996084 | -0.193 | 2.45 | -0.207 | -0.209 |

Reformatted: 3 of the entries above
{"gene": "WDR59 (WD repeat domain 59)", "PubChem SID": "SID364003372", "mean correlation with KSR1 profile": 0.588, "mean distance from KSR1 profile": 1.26, "KSR1 correlation, replicate 1": 0.63, "KSR1 correlation, replicate 2": 0.468}
{"gene": "SMARCD1 (SWI/SNF related BAF chromatin remodeling complex subunit D1)", "PubChem SID": "SID363994221", "mean correlation with KSR1 profile": -0.333, "mean distance from KSR1 profile": 1.48, "KSR1 correlation, replicate 1": -0.301, "KSR1 correlation, replicate 2": -0.147}
{"gene": "ADGRE5 (adhesion G protein-coupled receptor E5)", "PubChem SID": "SID363993003", "mean correlation with KSR1 profile": 0.919, "mean distance from KSR1 profile": 0.627, "KSR1 correlation, replicate 1": 0.886, "KSR1 correlation, replicate 2": 0.888}
